At least one read-out could not be matched to a standard name with certainty.
Assay: Biopharmaceutical classification system (BCS)
Format: physicochemical
Excerpt: The compound of formula (IV), its manufacture, its pharmacological activity as inverse agonists of the GABA A a5 receptor, and its use for the treatment, prevention and/or delay of progression of various central nervous system (CNS) conditions have been described in WO 2009/071476. […] Res. (1995) 12:413-420]. […] If anhydrous solid forms of the compound of formula (IV), as described in WO 2009/071476, are selected for clinical development, a physical instability in terms of hydrate formation during pharmaceutical processing and/or storage of the drug product is possible. […] Further, the discovery of new solid forms of an API (polymorphs, solvates, salts, inclusion complexes) enlarges the repertoire of materials that a formulation scientist has available with which to design a pharmaceutical dosage form of a drug with a targeted release profile or other desired characteristics. Therefore, there is a need to find more solid forms of the compound of formula (IV). […] The instant invention provides novel solid forms of the compound of formula (IV) with improved solubility, dissolution rate, oral bioavailability as well as increased stability of the API. In addition, the instant invention provides novel inclusion complexes of compounds of formula (IV) with cyclodextrins. Such inclusion complexes further feature improved dissolution rate and bioavailability. […]

Cc1onc(-c2ccc(F)cc2)c1COc1ccc(C(=O)N2CCS(=O)(=O)CC2)cn1 [compound of formula (IV), (1,1-dioxo-1lambda6-thiomorpholin-4-yl)-{6-[3-(4-fluoro-phenyl)-5-methyl-isoxazol-4-ylmethoxy]-pyridin-3-yl]-methanone]
permeability: high permeability
